In doi:10.1101/2025.07.25.666797:
No constants are given. Whether binding was seen depends on the method and setting. In cells and extracts the contact can be indirect. Some binding calls cover weakened binding; strength is not graded here.

Protein sequences, listed by entry. Tags and fused reporters are not part of them.
UniProt Q9Y4I1: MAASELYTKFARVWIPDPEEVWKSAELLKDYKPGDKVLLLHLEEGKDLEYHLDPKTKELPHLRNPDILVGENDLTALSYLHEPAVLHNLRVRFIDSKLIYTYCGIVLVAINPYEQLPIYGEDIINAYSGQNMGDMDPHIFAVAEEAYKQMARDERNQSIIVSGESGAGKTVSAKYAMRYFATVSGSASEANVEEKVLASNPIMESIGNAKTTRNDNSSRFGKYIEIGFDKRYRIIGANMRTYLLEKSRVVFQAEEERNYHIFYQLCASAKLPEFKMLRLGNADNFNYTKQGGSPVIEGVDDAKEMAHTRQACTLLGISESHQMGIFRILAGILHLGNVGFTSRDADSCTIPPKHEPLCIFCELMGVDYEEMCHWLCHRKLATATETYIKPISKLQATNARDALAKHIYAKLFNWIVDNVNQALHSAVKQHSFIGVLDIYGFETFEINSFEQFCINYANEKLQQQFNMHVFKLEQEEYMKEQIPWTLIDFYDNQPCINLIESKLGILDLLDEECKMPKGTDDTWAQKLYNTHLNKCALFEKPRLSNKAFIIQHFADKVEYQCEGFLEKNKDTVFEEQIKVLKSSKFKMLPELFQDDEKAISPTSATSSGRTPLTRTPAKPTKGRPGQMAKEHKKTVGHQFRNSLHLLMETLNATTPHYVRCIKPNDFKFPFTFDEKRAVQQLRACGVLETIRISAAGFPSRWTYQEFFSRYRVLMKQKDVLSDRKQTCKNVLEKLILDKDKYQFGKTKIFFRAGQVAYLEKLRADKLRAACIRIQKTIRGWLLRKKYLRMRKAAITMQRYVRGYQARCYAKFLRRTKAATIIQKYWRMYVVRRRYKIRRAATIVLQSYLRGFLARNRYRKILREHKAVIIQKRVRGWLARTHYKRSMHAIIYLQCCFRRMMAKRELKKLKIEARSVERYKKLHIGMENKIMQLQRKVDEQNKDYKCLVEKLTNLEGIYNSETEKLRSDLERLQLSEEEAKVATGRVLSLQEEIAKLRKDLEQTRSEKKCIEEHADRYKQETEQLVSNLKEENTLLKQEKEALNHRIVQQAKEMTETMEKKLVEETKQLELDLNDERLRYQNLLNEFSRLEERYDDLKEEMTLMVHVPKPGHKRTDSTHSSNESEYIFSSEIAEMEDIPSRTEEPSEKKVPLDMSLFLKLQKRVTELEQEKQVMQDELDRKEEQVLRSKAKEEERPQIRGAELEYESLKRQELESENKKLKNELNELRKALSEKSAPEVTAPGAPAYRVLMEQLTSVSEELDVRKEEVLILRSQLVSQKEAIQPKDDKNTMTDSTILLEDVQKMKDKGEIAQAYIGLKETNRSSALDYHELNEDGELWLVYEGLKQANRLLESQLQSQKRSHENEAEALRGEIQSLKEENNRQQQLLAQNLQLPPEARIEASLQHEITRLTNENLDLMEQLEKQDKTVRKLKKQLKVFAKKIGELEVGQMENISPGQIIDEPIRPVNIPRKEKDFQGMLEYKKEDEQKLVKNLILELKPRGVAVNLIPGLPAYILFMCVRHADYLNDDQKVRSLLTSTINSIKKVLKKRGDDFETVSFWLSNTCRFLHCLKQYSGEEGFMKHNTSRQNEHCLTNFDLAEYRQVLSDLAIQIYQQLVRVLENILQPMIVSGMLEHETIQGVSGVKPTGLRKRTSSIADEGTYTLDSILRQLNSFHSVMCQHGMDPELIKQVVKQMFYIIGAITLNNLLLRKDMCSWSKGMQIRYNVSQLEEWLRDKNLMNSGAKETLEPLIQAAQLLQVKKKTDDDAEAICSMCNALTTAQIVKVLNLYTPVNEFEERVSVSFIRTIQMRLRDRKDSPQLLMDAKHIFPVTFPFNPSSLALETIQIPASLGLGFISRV
UniProt Q8TAG9: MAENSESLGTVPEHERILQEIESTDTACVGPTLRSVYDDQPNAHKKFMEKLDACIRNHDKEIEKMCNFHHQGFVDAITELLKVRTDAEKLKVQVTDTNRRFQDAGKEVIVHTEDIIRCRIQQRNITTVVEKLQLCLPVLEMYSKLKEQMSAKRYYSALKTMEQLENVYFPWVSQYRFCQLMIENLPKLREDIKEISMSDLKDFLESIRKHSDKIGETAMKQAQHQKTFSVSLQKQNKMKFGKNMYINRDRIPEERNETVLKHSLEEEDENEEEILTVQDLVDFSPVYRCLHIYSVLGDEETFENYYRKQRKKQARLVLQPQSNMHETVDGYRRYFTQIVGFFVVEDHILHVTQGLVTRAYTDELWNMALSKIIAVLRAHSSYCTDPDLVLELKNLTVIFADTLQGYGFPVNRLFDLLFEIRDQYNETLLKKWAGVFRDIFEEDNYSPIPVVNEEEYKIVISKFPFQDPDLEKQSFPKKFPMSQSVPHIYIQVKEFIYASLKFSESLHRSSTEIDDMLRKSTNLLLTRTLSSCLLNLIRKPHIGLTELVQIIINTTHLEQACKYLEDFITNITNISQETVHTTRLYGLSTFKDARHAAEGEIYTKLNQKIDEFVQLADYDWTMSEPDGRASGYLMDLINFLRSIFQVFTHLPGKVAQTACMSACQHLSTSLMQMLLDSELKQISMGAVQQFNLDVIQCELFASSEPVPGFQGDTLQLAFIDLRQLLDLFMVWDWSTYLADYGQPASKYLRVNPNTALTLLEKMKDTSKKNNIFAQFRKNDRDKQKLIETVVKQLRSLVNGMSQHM

Target: myosin-Va (human) (UniProt Q9Y4I1)
Experiment: co-IP; cell lysates immunoprecipitated with EXOC6A or Myo-Va antibodies, then immunoblotting with the indicated antibodies; endogenous proteins; cell line and buffer not stated

binding: binds
Substance: EXOC6A (from UniProt Q8TAG9 1-804)
